From article PMC4872223
These are yes or no findings as the source states them, for the method shown. Binding seen in cells or lysates may run through a third protein. Where a sequence is shown, tags or fusion partners need not be part of it.

Biological target: T1, ROS1-nLUC (Arabidopsis), Q9SJQ6
T1 chain: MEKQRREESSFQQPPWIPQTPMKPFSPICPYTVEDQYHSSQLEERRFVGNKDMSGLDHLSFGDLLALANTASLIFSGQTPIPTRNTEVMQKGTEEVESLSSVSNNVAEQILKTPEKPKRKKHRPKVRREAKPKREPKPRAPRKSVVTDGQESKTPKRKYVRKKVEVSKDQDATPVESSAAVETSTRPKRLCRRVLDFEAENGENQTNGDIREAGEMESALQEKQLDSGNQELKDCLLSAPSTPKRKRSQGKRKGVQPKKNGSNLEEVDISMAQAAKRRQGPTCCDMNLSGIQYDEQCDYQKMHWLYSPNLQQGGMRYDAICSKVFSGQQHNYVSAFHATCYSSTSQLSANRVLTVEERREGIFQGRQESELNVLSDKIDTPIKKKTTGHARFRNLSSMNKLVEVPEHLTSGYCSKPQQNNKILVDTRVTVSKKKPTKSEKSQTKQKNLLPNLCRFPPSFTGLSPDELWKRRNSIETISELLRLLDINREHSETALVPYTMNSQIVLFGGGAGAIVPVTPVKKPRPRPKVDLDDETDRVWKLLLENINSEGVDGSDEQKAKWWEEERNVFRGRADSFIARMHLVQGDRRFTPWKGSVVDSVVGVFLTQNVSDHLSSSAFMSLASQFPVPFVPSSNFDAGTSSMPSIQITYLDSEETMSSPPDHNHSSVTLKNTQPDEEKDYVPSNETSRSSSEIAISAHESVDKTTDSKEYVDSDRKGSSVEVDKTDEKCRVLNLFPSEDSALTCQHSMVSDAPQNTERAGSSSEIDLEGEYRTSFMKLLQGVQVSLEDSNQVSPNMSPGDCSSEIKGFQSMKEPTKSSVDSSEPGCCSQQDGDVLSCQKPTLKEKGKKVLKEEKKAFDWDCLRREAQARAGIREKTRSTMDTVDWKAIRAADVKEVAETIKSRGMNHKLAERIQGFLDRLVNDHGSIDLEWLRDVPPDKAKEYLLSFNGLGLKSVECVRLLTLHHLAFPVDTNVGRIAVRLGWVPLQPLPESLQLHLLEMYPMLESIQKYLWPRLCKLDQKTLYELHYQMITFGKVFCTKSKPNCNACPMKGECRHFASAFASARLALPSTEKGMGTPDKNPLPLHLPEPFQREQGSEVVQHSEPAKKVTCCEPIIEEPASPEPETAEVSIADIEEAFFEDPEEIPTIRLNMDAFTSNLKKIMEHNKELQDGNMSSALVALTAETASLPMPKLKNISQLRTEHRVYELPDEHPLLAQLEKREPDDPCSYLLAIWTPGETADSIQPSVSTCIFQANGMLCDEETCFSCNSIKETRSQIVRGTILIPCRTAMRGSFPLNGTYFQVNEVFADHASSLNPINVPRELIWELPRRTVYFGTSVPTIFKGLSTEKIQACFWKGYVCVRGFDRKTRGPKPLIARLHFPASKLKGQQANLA
Assay: split reporter; firefly luciferase complementation imaging (split-LUC); nLUC and cLUC fusions co-infiltrated into Nicotiana benthamiana leaves, with viral p19
Conditions: remark: other sources report otherwise

binding: no binding
B1: AE7, split-LUC fusion tested against ROS1, Q9C9G6 1-157 (protein)
chain: MVSGLINENPIIYPKKERRLRTDTSITDELTPEPIDQLEIFDHIRDIKDPEHPNTLEDLRVVTEDSVEVDDENSYVRVTFTPTVEHCSMATVIGLCVRVKLLRSLPSRYKIDIRVAPGSHATEDALNKQLNDKERVAAALENPNLVEMVDECLPSEE
